Source: paper PMC7594087
These are yes or no findings as the source states them, for the method shown. Binding seen in cells or lysates may run through a third protein. Some entries that bind do so weakly or less than the wild type. Tags and fused reporters may be left off the sequences shown.

Sequences of proteins named here, by UniProt entry; tags and fusion partners are left off. A change or cut given only in a name is not applied to a line headed by its entry.
UniProt Q6P5Z2: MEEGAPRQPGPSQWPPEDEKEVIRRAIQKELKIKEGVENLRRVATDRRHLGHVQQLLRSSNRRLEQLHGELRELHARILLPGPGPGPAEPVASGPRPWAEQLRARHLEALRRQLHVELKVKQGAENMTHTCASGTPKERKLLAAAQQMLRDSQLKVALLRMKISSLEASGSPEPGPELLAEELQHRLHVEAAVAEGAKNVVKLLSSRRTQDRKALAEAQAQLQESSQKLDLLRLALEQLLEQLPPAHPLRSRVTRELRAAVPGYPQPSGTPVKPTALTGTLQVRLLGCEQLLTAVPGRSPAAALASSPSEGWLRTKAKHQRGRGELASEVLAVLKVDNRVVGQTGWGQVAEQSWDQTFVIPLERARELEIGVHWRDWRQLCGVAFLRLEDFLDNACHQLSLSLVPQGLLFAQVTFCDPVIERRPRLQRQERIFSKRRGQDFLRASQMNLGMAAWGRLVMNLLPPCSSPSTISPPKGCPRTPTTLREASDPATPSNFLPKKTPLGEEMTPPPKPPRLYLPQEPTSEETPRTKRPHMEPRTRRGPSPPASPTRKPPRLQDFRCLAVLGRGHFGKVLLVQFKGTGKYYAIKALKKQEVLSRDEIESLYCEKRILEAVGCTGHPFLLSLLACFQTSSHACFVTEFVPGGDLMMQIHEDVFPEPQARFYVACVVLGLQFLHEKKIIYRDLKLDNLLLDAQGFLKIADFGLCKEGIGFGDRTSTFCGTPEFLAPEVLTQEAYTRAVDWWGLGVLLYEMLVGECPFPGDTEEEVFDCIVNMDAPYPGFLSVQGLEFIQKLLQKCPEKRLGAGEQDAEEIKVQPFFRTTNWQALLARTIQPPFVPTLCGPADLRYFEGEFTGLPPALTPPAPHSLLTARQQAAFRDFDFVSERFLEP
UniProt P61586: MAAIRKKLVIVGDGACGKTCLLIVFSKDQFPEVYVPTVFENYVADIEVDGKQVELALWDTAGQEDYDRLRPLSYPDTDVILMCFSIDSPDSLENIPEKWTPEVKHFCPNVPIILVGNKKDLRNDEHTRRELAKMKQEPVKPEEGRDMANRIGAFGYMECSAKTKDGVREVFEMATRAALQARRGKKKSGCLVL

T1: GST-ARHGAP18 N50 (human) (UniProt Q8N392)
T1 sequence: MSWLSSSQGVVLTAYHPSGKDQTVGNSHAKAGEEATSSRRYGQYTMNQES


Assays:
GST-ARHGAP18 N50 (human) = target: T1, GST-ARHGAP18 N50 (human); test: pull-down; GST only or GST-ARHGAP18 N50 as bait, GFP-PKN3 detected by immunoblot; GST-fused proteins stained with Ponceau S; only the target purified
[1] = target: Flag-PKN3 WT (protein kinase N3) (human) (UniProt Q6P5Z2); test: co-IP; Flag-PKN3 precipitated with Anti-Flag Affinity Gel from lysates of transfected MDA-MB-231 cells (1% Triton X-100 in TBS, 50 mM Tris-HCl pH 7.1, 150 mM NaCl), 3 h, 4 °C; GFP-ARHGAP18 variants detected by immunoblot
[2] = target: GST-RhoA CA (G14V), constitutively active RhoA (UniProt P61586); test: pull-down; agarose-bound GST-RhoA CA (G14V), 15 μg, added to lysates of cells transfected with GFP-ARHGAP18 variants (HBS, 1% Triton X-100, 5 mM MgCl2, 1 mM DTT), 1 h, 4 °C; lysates equalized for GFP signal; only the target purified

binding [1] | Molecule | further results
binds | GFP-ARHGAP18 Δ201-323 (protein, UniProt Q8N392) MSWLSSSQGVVLTAYHPSGKDQTVGNSHAKAGEEATSSRRYGQYTMNQESTTIKVMEKPPFDRSISQDSLDELSMEDYWIELENIKKSSENSQEDQEVVVVKEPDEGELEEEWLKEAGLSNLFGESAGDPQESIVFLSTLTRTQAAAVQKRVETVSQTLRKKNKQYQIPDVRDIFAQQRESKETAPGGTESQSLRTNENKVPLTALLEQDQRKVPGMRIPLIFQKLISRIEERGLETEGLLRIPGAAIRIKNLCQELEAKFYEGTFNWESVKQHDAASLLKLFIRELPQPLLSVEYLKAFQAVQNLPTKKQQLQALNLLVILLPDANRDTLKALLEFLQRVIDNKEKNKMTVMNVAMVMAPNLFMCHALGLKSSEQREFVMAAGTANTMHLLIKYQKLLWTIPKFIVNQVRKQNTENHKKDKRAMKKLLKKMAYDREKYEKQDKSTNDADVPQGVIRVQAPHLSKVSMAIQLTEELKASDVLARFLSQESGVAQTLKKGEVFLYEIGGNIGERCLDDDTYMKDLYQLNPNAEWVIKSKPL | –
binds | GFP-ARHGAP18 WT (Rho GTPase Activating Protein 18, isoform 1, full-length) (protein, UniProt Q8N392 1-663) MSWLSSSQGVVLTAYHPSGKDQTVGNSHAKAGEEATSSRRYGQYTMNQESTTIKVMEKPPFDRSISQDSLDELSMEDYWIELENIKKSSENSQEDQEVVVVKEPDEGELEEEWLKEAGLSNLFGESAGDPQESIVFLSTLTRTQAAAVQKRVETVSQTLRKKNKQYQIPDVRDIFAQQRESKETAPGGTESQSLRTNENKYQGRDDEASNLVGEEKLIPPEETPAPETDINLEVSFAEQALNQKESSKEKIQKSKGDDATLPSFRLPKDKTGTTRIGDLAPQDMKKVCHLALIELTALYDVLGIELKQQKAVKIKTKDSGLFCVPLTALLEQDQRKVPGMRIPLIFQKLISRIEERGLETEGLLRIPGAAIRIKNLCQELEAKFYEGTFNWESVKQHDAASLLKLFIRELPQPLLSVEYLKAFQAVQNLPTKKQQLQALNLLVILLPDANRDTLKALLEFLQRVIDNKEKNKMTVMNVAMVMAPNLFMCHALGLKSSEQREFVMAAGTANTMHLLIKYQKLLWTIPKFIVNQVRKQNTENHKKDKRAMKKLLKKMAYDREKYEKQDKSTNDADVPQGVIRVQAPHLSKVSMAIQLTEELKASDVLARFLSQESGVAQTLKKGEVFLYEIGGNIGERCLDDDTYMKDLYQLNPNAEWVIKSKPL | –
binds weakly | GFP-ARHGAP18 N200 Δ13–25 (domain or fragment, UniProt Q8N392) MSWLSSSQGVVLNSHAKAGEEATSSRRYGQYTMNQESTTIKVMEKPPFDRSISQDSLDELSMEDYWIELENIKKSSENSQEDQEVVVVKEPDEGELEEEWLKEAGLSNLFGESAGDPQESIVFLSTLTRTQAAAVQKRVETVSQTLRKKNKQYQIPDVRDIFAQQRESKETAPGGTESQSLRTNENK | –

Continued, molecule first:

Molecule | binding [1] | further results
GFP-PKN3 (from UniProt Q6P5Z2 1-889) (enzyme) | – | binding (GST-ARHGAP18 N50 (human)): binds
GFP-ARHGAP18 N200 (domain or fragment, UniProt Q8N392 1-200) MSWLSSSQGVVLTAYHPSGKDQTVGNSHAKAGEEATSSRRYGQYTMNQESTTIKVMEKPPFDRSISQDSLDELSMEDYWIELENIKKSSENSQEDQEVVVVKEPDEGELEEEWLKEAGLSNLFGESAGDPQESIVFLSTLTRTQAAAVQKRVETVSQTLRKKNKQYQIPDVRDIFAQQRESKETAPGGTESQSLRTNENK | binds | –
GFP-ARHGAP18 TST-DDD (phosphomimicking mutant) (protein, UniProt Q8N392 1-663) MSWLSSSQGVVLTAYHPSGKDQTVGNSHAKAGEEATSSRRYGQYTMNQESTTIKVMEKPPFDRSISQDSLDELSMEDYWIELENIKKSSENSQEDQEVVVVKEPDEGELEEEWLKEAGLSNLFGESAGDPQESIVFLSTLTRTQAAAVQKRVEDVDQDLRKKNKQYQIPDVRDIFAQQRESKETAPGGTESQSLRTNENKYQGRDDEASNLVGEEKLIPPEETPAPETDINLEVSFAEQALNQKESSKEKIQKSKGDDATLPSFRLPKDKTGTTRIGDLAPQDMKKVCHLALIELTALYDVLGIELKQQKAVKIKTKDSGLFCVPLTALLEQDQRKVPGMRIPLIFQKLISRIEERGLETEGLLRIPGAAIRIKNLCQELEAKFYEGTFNWESVKQHDAASLLKLFIRELPQPLLSVEYLKAFQAVQNLPTKKQQLQALNLLVILLPDANRDTLKALLEFLQRVIDNKEKNKMTVMNVAMVMAPNLFMCHALGLKSSEQREFVMAAGTANTMHLLIKYQKLLWTIPKFIVNQVRKQNTENHKKDKRAMKKLLKKMAYDREKYEKQDKSTNDADVPQGVIRVQAPHLSKVSMAIQLTEELKASDVLARFLSQESGVAQTLKKGEVFLYEIGGNIGERCLDDDTYMKDLYQLNPNAEWVIKSKPL | – | binding [2]: binds
GFP-ARHGAP18 N200 Δ1–12 (domain or fragment, UniProt Q8N392 13-200) TAYHPSGKDQTVGNSHAKAGEEATSSRRYGQYTMNQESTTIKVMEKPPFDRSISQDSLDELSMEDYWIELENIKKSSENSQEDQEVVVVKEPDEGELEEEWLKEAGLSNLFGESAGDPQESIVFLSTLTRTQAAAVQKRVETVSQTLRKKNKQYQIPDVRDIFAQQRESKETAPGGTESQSLRTNENK | binds weakly | –
GFP-ARHGAP18 Iso2 TST-DDD (protein, UniProt Q8N392 46-663) MNQESTTIKVMEKPPFDRSISQDSLDELSMEDYWIELENIKKSSENSQEDQEVVVVKEPDEGELEEEWLKEAGLSNLFGESAGDPQESIVFLSTLTRTQAAAVQKRVEDVDQDLRKKNKQYQIPDVRDIFAQQRESKETAPGGTESQSLRTNENKYQGRDDEASNLVGEEKLIPPEETPAPETDINLEVSFAEQALNQKESSKEKIQKSKGDDATLPSFRLPKDKTGTTRIGDLAPQDMKKVCHLALIELTALYDVLGIELKQQKAVKIKTKDSGLFCVPLTALLEQDQRKVPGMRIPLIFQKLISRIEERGLETEGLLRIPGAAIRIKNLCQELEAKFYEGTFNWESVKQHDAASLLKLFIRELPQPLLSVEYLKAFQAVQNLPTKKQQLQALNLLVILLPDANRDTLKALLEFLQRVIDNKEKNKMTVMNVAMVMAPNLFMCHALGLKSSEQREFVMAAGTANTMHLLIKYQKLLWTIPKFIVNQVRKQNTENHKKDKRAMKKLLKKMAYDREKYEKQDKSTNDADVPQGVIRVQAPHLSKVSMAIQLTEELKASDVLARFLSQESGVAQTLKKGEVFLYEIGGNIGERCLDDDTYMKDLYQLNPNAEWVIKSKPL | – | binding [2]: binds
GFP-ARHGAP18 Iso2 WT (isoform 2) (protein, UniProt Q8N392 46-663) MNQESTTIKVMEKPPFDRSISQDSLDELSMEDYWIELENIKKSSENSQEDQEVVVVKEPDEGELEEEWLKEAGLSNLFGESAGDPQESIVFLSTLTRTQAAAVQKRVETVSQTLRKKNKQYQIPDVRDIFAQQRESKETAPGGTESQSLRTNENKYQGRDDEASNLVGEEKLIPPEETPAPETDINLEVSFAEQALNQKESSKEKIQKSKGDDATLPSFRLPKDKTGTTRIGDLAPQDMKKVCHLALIELTALYDVLGIELKQQKAVKIKTKDSGLFCVPLTALLEQDQRKVPGMRIPLIFQKLISRIEERGLETEGLLRIPGAAIRIKNLCQELEAKFYEGTFNWESVKQHDAASLLKLFIRELPQPLLSVEYLKAFQAVQNLPTKKQQLQALNLLVILLPDANRDTLKALLEFLQRVIDNKEKNKMTVMNVAMVMAPNLFMCHALGLKSSEQREFVMAAGTANTMHLLIKYQKLLWTIPKFIVNQVRKQNTENHKKDKRAMKKLLKKMAYDREKYEKQDKSTNDADVPQGVIRVQAPHLSKVSMAIQLTEELKASDVLARFLSQESGVAQTLKKGEVFLYEIGGNIGERCLDDDTYMKDLYQLNPNAEWVIKSKPL | binds weakly | –
